Here are results for one molecule from article PMC5683033.

No constants are given. Whether binding was seen depends on the method and setting.

The target of this test is pteridine glycosyltransferase from Chlorobium tepidum (Chlorobium tepidum). Briefly: SEC; Superdex 200, 20 mM Tris-HCl pH 8.0, 150 mM NaCl, 1 mM DTT; size estimated against protein standards; both purified.

B1: pteridine glycosyltransferase from Chlorobium tepidum (enzyme)
chain: GAMKKLRIAQVSPLIESVPPKKYGGTERVVYYLTEGLVERGHEVTLFASGDSATSARLIAPVKESLRLGRKIHSTTIMHMLMLSKVYEEMAGEFDIIHSHLEYLTLPYASCSRTPTVLTMHGRLDLPDYADILKRYSSMAWVSISDSQRAPVPDINWVGTIYHGYPENLFEFNPDPEDYFLYLGRFSEEKRPDEAIRLARACKIHLKLAAKIDTADKAYFKAKVEPLLDSPYIEYVGEVGDSRKGELLRNAKALLNTIDWPEPFGLVMIEALACGTPVIVRRCGSSPEVITHGVTGFICDSQLDFIRAIHNIGTISRIACRREFEQRFTLRHMVDNYETLYRKVIAASSATDSLSSLP
modifications: selenomethionine-substituted (selenomethionine in place of methionine)
As for B1, the binding result is “no binding”.
